Results are given in words; binding and its absence hold for the method and conditions named. Some results given as binding are weak or reduced against the parent protein; the word gives no strength.
Target: T1, TY145 subtilase (Bacillus sp. TY145)
T1 sequence: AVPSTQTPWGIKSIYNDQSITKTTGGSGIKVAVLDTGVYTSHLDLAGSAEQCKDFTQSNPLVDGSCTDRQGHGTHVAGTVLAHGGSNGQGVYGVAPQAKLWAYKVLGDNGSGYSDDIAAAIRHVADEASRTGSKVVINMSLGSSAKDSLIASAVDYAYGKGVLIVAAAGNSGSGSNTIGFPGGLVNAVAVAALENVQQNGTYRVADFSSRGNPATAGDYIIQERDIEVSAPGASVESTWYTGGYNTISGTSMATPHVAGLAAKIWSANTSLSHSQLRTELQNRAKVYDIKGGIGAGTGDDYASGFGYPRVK
Assay: X-ray crystal structure of the complex

binding: binds
B1: CI2 inhibitor (protein)
chain: ATEWPELVGKSVEEAKKVILQDKPEAQIIVLPVGTIVTMEYRIDRVRLFVDKLDNIAEVPRVG

From patent US20120088288A1
